Results reported in US9993522B2, “Treatment of pain by inhibition of USP5 de-ubiquitinase” (UTI LIMITED PARTNERSHIP, priority 2012, dated 2018).
Not every detail of the peptide structures is certain; ends, links or a residue may be inferred. Residues, ends and D or L forms follow the SMILES beside them.

Amino acid sequences for entries named in this document (tags omitted). Residues count along the entry.
UniProt O95180, 1-2347 isoform O95180-2: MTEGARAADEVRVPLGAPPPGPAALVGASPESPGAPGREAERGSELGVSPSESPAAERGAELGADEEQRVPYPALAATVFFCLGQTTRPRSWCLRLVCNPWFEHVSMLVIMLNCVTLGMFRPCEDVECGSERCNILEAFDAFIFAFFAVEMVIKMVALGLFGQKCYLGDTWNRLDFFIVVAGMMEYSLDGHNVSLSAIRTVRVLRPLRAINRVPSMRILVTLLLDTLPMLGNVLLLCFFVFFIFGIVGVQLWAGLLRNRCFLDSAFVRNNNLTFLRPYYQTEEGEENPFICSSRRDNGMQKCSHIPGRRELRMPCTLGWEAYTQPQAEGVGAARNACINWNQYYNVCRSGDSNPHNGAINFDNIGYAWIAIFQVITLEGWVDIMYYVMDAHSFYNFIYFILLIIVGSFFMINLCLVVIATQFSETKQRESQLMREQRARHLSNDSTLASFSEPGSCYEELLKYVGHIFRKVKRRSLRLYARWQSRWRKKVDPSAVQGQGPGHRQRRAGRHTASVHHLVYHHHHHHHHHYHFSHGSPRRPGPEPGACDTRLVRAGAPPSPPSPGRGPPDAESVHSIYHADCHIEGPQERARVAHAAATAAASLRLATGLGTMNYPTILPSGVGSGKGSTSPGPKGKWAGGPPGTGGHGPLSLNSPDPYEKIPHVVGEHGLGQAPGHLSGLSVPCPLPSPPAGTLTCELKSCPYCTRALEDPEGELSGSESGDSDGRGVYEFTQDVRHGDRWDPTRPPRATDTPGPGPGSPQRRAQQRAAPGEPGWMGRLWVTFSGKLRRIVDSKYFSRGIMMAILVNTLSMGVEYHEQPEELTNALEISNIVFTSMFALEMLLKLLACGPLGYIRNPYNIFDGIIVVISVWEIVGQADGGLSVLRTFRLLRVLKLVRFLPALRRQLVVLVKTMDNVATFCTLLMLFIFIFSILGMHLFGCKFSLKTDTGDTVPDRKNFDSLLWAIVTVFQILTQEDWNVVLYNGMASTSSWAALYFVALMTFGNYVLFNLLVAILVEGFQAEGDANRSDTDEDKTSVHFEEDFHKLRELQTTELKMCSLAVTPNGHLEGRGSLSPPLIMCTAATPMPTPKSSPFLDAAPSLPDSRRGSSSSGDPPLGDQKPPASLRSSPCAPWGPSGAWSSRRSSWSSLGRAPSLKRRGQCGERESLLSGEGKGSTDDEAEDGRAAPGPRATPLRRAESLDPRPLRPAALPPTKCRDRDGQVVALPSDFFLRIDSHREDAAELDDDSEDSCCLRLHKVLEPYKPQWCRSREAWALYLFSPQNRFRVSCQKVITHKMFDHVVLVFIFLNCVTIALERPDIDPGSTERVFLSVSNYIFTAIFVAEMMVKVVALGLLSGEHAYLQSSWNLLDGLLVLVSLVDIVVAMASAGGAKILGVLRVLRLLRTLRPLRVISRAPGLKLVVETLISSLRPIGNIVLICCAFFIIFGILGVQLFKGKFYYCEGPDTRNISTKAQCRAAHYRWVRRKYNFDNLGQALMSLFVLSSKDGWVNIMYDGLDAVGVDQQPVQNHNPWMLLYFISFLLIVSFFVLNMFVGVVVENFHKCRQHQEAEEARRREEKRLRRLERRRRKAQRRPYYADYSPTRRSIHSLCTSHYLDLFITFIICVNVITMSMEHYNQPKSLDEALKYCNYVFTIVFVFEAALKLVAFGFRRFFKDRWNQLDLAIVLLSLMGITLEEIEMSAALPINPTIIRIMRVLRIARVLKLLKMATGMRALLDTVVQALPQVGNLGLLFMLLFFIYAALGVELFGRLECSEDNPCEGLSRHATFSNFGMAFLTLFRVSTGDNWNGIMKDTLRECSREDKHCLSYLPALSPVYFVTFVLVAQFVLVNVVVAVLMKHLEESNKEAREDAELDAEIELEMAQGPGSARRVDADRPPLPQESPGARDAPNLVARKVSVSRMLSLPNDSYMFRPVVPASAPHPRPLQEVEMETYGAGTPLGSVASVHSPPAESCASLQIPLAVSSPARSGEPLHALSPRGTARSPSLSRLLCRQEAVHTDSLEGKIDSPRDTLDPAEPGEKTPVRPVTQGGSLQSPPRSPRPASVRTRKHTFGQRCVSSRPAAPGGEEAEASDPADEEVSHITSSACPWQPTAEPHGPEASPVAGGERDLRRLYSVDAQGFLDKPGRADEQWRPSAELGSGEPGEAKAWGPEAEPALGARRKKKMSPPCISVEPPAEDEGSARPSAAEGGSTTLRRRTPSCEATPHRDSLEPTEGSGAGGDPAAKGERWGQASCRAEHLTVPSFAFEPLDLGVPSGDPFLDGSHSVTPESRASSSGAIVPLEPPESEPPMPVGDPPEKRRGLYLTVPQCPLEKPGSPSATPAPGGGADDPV

Legend:
USP5 = target: T1, USP5 (Mus musculus, UniProt P56399); experiment: In vitro competition assay by affinity precipitation, mouse brain lysates, anti-USP5 western blot; format: binding
T1 construct: from tissue; host or cells: mouse brain lysate
T1 sequence (P56399 1-858): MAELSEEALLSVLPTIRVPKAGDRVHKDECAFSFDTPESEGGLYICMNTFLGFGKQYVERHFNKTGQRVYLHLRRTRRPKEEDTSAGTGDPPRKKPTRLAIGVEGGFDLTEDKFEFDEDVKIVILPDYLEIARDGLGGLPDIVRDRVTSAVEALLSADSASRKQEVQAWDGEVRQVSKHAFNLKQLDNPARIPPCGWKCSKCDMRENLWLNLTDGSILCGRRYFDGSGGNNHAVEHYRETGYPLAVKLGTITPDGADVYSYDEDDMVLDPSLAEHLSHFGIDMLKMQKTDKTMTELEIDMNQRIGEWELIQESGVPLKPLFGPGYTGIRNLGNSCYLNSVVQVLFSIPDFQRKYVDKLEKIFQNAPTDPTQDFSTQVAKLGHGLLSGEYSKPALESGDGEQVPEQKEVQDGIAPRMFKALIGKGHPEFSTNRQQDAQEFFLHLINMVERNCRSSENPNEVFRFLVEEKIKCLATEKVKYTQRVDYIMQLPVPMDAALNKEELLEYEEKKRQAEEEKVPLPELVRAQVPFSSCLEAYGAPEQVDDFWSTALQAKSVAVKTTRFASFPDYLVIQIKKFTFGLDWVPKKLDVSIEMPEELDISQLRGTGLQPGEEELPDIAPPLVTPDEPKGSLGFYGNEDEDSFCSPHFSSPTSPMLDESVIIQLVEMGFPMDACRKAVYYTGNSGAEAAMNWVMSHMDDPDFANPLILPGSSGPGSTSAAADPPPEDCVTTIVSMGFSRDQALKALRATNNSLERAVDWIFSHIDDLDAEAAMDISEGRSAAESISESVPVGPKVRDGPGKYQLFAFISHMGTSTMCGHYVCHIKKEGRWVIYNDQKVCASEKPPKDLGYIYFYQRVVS

Cav3.2 channels = target: T2, Cav3.2 channels (Homo sapiens, UniProt O95180); experiment: Control experiment for direct block of Cav3.2 channels in transiently transfected tsA-201 cells; format: cell-based; details: data not shown
T2 construct: expressed in transfected cells; host or cells: tsA-201 (human embryonic kidney) cells

Question: With `CC(C)C[C@H](NC(=O)[C@H](CCCNC(=N)N)NC(=O)[C@H](CCCNC(=N)N)NC(=O)[C@H](CC(C)C)NC(=O)[C@H](CCCNC(=N)N)NC(=O)[C@H](CCCCN)NC(=O)[C@H](CCC(=O)O)NC(=O)[C@H](CCC(=O)O)NC(=O)[C@H](CCCNC(=N)N)NC(=O)[C@H](CCCNC(=N)N)NC(=O)[C@H](CCCNC(=N)N)NC(=O)[C@H](C)NC(=O)[C@H](CCC(=O)O)NC(=O)[C@H](CCCNC(=N)N)NC(=O)[C@H](CCCNC(=N)N)NC(=O)[C@H](CCCNC(=N)N)NC(=O)[C@H](CCC(N)=O)NC(=O)[C@H](CCCNC(=N)N)NC(=O)[C@H](CCCNC(=N)N)NC(=O)[C@H](CCCCN)NC(=O)[C@H](CCCCN)NC(=O)[C@H](CCCNC(=N)N)NC(=O)CNC(=O)[C@@H](N)Cc1ccc(O)cc1)C(=O)N[C@@H](CCC(=O)O)C(=O)N[C@@H](CCCNC(=N)N)C(=O)N[C@@H](CCCNC(=N)N)C(=O)N[C@@H](CCCNC(=N)N)C(=O)N[C@@H](CCCNC(=N)N)C(=O)N[C@@H](CCCCN)C(=O)N[C@@H](C)C(=O)N[C@@H](CCC(N)=O)C(=O)O` [Tat-3.2-III-IV linker peptide] (H-YGRKKRRQRRREARRREEKRLRRLERRRRKAQ-OH) as the molecule, how does the “binding to USP5 (western blot)” value (USP5; biotinylated peptide 25 μg, mouse brain lysates) read?
Answer: The value was “strongly bound to USP5”.

Question: What about the “competition with biotinylated III-IV linker peptide for USP5” value (USP5; non-biotinylated peptide 50 μg vs biotinylated 25 μg) of the same molecule?
Answer: The value was “outcompeted the biotinylated Cav3.216-1589 III-IV linker peptide for USP5”.

Question: What about the “direct block of Cav3.2 channels” value (Cav3.2 channels) of the same molecule?
Answer: Its value is “did not directly block Cav3.2 channels”.
